The test concerns the target outer membrane porin PhoE (UniProt P02932). Kind of test: semi-native SDS-PAGE (heat modifiability assay); OMVs in semi-native sample buffer (0.4% SDS) left at room temperature (native), against 4% SDS at 95 °C for 10 min (denatured); resolving gel without SDS, run at 4 °C; Coomassie staining.

These are yes or no findings as the source states them, for the method shown. Some results given as binding are weak or reduced against the parent protein; the word gives no strength.

B1: outer membrane porin PhoE (protein, UniProt P02932 22-351)
chain: AEIYNKDGNKLDVYGKVKAMHYMSDNASKDGDQSYIRFGFKGETQINDQLTGYGRWEAEFAGNKAESDTAQQKTRLAFAGLKYKDLGSFDYGRNLGALYDVEAWTDMFPEFGGDSSAQTDNFMTKRASGLATYRNTDFFGVIDGLNLTLQYQGKNENRDVKKQNGDGFGTSLTYDFGGSDFAISGAYTNSDRTNEQNLQSRGTGKRAEAWATGLKYDANNIYLATFYSETRKMTPITGGFANKTQNFEAVAQYQFDFGLRPSLGYVLSKGKDIEGIGDEDLVNYIDVGATYYFNKNMSAFVDYKINQLDSDNKLNINNDDIVAVGMTYQF
In the case of B1, the binding result was “binds”.

For the origin of these results see PMC12540271.
